Measurements reported in PMC12470860.
These are yes or no findings as the source states them, for the method shown. Binding seen in cells or lysates may run through a third protein. Some entries that bind do so weakly or less than the wild type.

The chains behind the UniProt entries cited, without tags or fusion partners. Residues count along the entry.
UniProt P10103: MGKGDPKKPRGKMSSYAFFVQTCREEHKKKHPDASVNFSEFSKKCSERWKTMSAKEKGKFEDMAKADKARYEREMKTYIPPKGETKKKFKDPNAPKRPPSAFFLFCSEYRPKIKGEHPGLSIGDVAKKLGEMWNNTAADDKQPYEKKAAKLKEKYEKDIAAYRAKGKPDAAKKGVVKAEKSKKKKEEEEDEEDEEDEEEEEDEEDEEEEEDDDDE
UniProt Q95LA9, residues 21-784: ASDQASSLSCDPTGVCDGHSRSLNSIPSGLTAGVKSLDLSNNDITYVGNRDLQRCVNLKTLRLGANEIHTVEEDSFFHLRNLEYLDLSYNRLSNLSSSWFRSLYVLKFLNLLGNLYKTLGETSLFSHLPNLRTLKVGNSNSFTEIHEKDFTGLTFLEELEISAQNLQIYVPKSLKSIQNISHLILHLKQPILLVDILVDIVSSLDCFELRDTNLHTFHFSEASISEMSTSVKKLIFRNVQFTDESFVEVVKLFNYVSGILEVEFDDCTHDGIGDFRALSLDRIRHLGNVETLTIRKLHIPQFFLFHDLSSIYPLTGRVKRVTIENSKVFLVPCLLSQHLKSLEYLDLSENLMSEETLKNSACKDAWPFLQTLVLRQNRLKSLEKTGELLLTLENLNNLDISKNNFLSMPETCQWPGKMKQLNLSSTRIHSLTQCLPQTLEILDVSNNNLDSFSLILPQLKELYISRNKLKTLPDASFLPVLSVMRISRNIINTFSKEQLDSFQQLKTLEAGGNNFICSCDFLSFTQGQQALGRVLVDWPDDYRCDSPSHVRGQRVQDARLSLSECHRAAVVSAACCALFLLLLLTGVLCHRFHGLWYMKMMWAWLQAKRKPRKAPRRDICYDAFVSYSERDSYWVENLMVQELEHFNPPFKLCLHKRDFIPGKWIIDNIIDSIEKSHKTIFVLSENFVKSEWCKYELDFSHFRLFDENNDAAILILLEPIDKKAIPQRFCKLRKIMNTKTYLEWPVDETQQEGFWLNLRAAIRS

Target: High-mobility group box 1 (UniProt P10103)
Experiment: co-IP; 8 μg HMGB1 monoclonal antibody with 1 mg pre-cleared BOGC lysate overnight at 4 °C, protein A/G agarose (Pierce Classic IP kit); blots for TLR2, TLR1, TLR6 and phospho-NF-κB p65; cells treated for 24 h with 0 or 5 μg/mL HMGB1, with or without 1.25, 2.5 or 5 μg/mL curcumin or siRNA-TLR2

| binding | Molecule |
| --- | --- |
| binds | Toll-like receptor 2 (from UniProt Q95LA9 21-784) |
| binds | TLR6 (receptor, UniProt Q704V6 24-793) TIIQFSDESEFVVDMSKTSLIHVPKDLPPKTKVLDLSQNNISELHLSDISFLSGLRVLRLSHNRIQGLDISIFKFNHDLEYLDLSHNQLQKISCHPITTTLKHLDLSFNDFDALPICKEFGNLTQLNFLGLSATKLQQLDLLPIAHLHLSCILLDLEDYMKENKKESLQILNTKKLHLVFHPNSFFSVQVDISANSLGCLQLTNIKLNDYNCQVLLKFLSGLTGGPTLLNFTLNHVETTWKCLVKVFQFLWPKPIEYLNIYNLTIVESIDEEVFTYYKTTLKALKIEHITNKVFIFSQTALYTVFSEMNILMLTISDTRFIHMLCPQEPSTFKFLNFTQNSFTDSVFQNCDTLARLETLILQKNELKDLFKTSLMTKDMLSLETLDVSWNSLEYDRSNGNCSWVGSIVVLNLSSNALTDSVFRCLPPRIKVLDLHNNRIRSIPKDVTGLETLQELNLASNSLAHLPGCGIFSSLSILIIEHNSISNPSADFFQSCQKIRSLKAGNNPFQCSCELRDFIQSVGQVSSDVVEGWPESYKCDYPESYKGTPLKDFQVSELSCNTALLIITIVVPGLVLAVAVTVLCIYLDLPWYLRMVCQWTQTRRRARNVPLEELQRTLQFHAFISYSEHDSAWVKNELIPNLEKEDIRICLHERNFVAGKSIVENIINCIEKSYKSIFVLSPNFVQSEWCHYELYFAHHNLFHEGSDNLILILLDPIPQYSIPSSYHKLRALMAQRTYLEWPKEKSKHGLFWANLRASINIKLMEKAAEIH |
